# According to the supplement of paper PMC11438910:
# The list shows a part of the results. Only a few entries rise above the background.
# B1: 4-173.3 (protein)
# chain 1: QLQLQESGPGLVKPSETLSLTCAVSGGSINNNYWSWIRQPPGKGLEWIGRIFGSGGSTDYNPSLKSRVTISTDTSKTQFSLNLNSVTAADTAVYFCARGSYQVDYWGQGVLVTVSS
# chain 2: QAALTQPPSMSGSPGQSVTISCTGTSSDIGGWNRVSWYQQYPGKAPKLMIYEVSKRPSGVSDRFSGSKSGNTASLTISGLQAEDEADYYCSSYVHINNALFGGGTRLTVL
# B2: 3S41.3 (protein)
# chain 1: EVQLVESGGGLVQPGGSLRLSCATSGFTFSNYWMYWFRQAPGKGLEWVSTISGSSSNTYYPDSVKGRFTISRDNAKNTLYLQINSLRAEDTAVYYCARRHDHSSGWAFDYWGQGVLVTVSS
# chain 2: EIVMTQSPATLSLSPGERATLSCRASQSVGSNLAWYQQKPGQAPKLLIYDASSRATGIPDRFSGSGSGTDFTLTVSSLEPEDVGVYYCQQYNNWKTFGQGTKVEIK
# Legend:
# Assay in all cases: fluorescence intensity of antibody binding to polysaccharide-coupled beads; higher = stronger binding
# [1] = molecular target: pneumococcal polysaccharide C-Poly-1
# [2] = molecular target: pneumococcal polysaccharide C-Poly-2
# [3] = molecular target: pneumococcal polysaccharide Pn1
# [4] = molecular target: pneumococcal polysaccharide Pn10A
# [5] = molecular target: pneumococcal polysaccharide Pn10B
# [6] = molecular target: pneumococcal polysaccharide Pn10C
# [7] = molecular target: pneumococcal polysaccharide Pn10F
# [8] = molecular target: pneumococcal polysaccharide Pn11A
# [9] = molecular target: pneumococcal polysaccharide Pn11B
# [10] = molecular target: pneumococcal polysaccharide Pn11C
# [11] = molecular target: pneumococcal polysaccharide Pn11D
# [12] = molecular target: pneumococcal polysaccharide Pn11F
# [13] = molecular target: pneumococcal polysaccharide Pn12A
# [14] = molecular target: pneumococcal polysaccharide Pn12B
# [15] = molecular target: pneumococcal polysaccharide Pn12F
# [16] = molecular target: pneumococcal polysaccharide Pn13
# [17] = molecular target: pneumococcal polysaccharide Pn14
# [18] = molecular target: pneumococcal polysaccharide Pn15A
# [19] = molecular target: pneumococcal polysaccharide Pn15B
# [20] = molecular target: pneumococcal polysaccharide Pn9N
# [21] = molecular target: pneumococcal polysaccharide Pn9V
# [22] = antibody concentration 0.1 ng/mL
# [23] = antibody concentration 0.534724 ng/mL
# [24] = antibody concentration 2.8593 ng/mL
# [25] = antibody concentration 15.2894 ng/mL
# [26] = antibody concentration 81.7561 ng/mL
# [27] = antibody concentration 437.17 ng/mL
# [28] = antibody concentration 2337.65 ng/mL
# [29] = antibody concentration 12500 ng/mL
binder,measurement,setting,value
B1,fluorescence intensity,[1]; [22],24.5 MFI
same,fluorescence intensity,[1]; [23],22.5 MFI
same,fluorescence intensity,[1]; [24],26 MFI
same,fluorescence intensity,[1]; [25],24.5 MFI
same,fluorescence intensity,[1]; [26],25.5 MFI
same,fluorescence intensity,[1]; [27],27.8 MFI
same,fluorescence intensity,[1]; [28],35.5 MFI
same,fluorescence intensity,[1]; [29],99 MFI
same,fluorescence intensity,[2]; [22],19 MFI
same,fluorescence intensity,[2]; [23],19 MFI
same,fluorescence intensity,[2]; [24],21.5 MFI
same,fluorescence intensity,[2]; [25],20 MFI
same,fluorescence intensity,[2]; [26],19.5 MFI
same,fluorescence intensity,[2]; [27],22.5 MFI
same,fluorescence intensity,[2]; [28],29 MFI
same,fluorescence intensity,[2]; [29],81 MFI
same,fluorescence intensity,[3]; [22],12.5 MFI
same,fluorescence intensity,[3]; [23],12.8 MFI
same,fluorescence intensity,[3]; [24],13 MFI
same,fluorescence intensity,[3]; [25],13 MFI
same,fluorescence intensity,[3]; [26],14 MFI
same,fluorescence intensity,[3]; [27],14 MFI
same,fluorescence intensity,[3]; [28],15.5 MFI
same,fluorescence intensity,[3]; [29],29.8 MFI
same,fluorescence intensity,[4]; [22],26.5 MFI
same,fluorescence intensity,[4]; [23],25 MFI
same,fluorescence intensity,[4]; [24],25.5 MFI
same,fluorescence intensity,[4]; [25],25 MFI
same,fluorescence intensity,[4]; [26],26 MFI
same,fluorescence intensity,[4]; [27],26 MFI
same,fluorescence intensity,[4]; [28],26.5 MFI
same,fluorescence intensity,[4]; [29],35 MFI
same,fluorescence intensity,[5]; [22],24.5 MFI
same,fluorescence intensity,[5]; [23],22 MFI
same,fluorescence intensity,[5]; [24],21 MFI
same,fluorescence intensity,[5]; [25],21.8 MFI
same,fluorescence intensity,[5]; [26],22.8 MFI
same,fluorescence intensity,[5]; [27],24 MFI
same,fluorescence intensity,[5]; [28],25.5 MFI
same,fluorescence intensity,[5]; [29],29 MFI
same,fluorescence intensity,[6]; [22],16 MFI
same,fluorescence intensity,[6]; [23],16 MFI
same,fluorescence intensity,[6]; [24],13.5 MFI
same,fluorescence intensity,[6]; [25],15.5 MFI
same,fluorescence intensity,[6]; [26],16 MFI
same,fluorescence intensity,[6]; [27],16.5 MFI
same,fluorescence intensity,[6]; [28],17 MFI
same,fluorescence intensity,[6]; [29],20.5 MFI
same,fluorescence intensity,[7]; [22],21.2 MFI
same,fluorescence intensity,[7]; [23],19.5 MFI
same,fluorescence intensity,[7]; [24],21.5 MFI
same,fluorescence intensity,[7]; [25],19 MFI
same,fluorescence intensity,[7]; [26],19 MFI
same,fluorescence intensity,[7]; [27],18 MFI
same,fluorescence intensity,[7]; [28],19.8 MFI
same,fluorescence intensity,[7]; [29],23 MFI
same,fluorescence intensity,[8]; [22],28.5 MFI
same,fluorescence intensity,[8]; [23],24.8 MFI
same,fluorescence intensity,[8]; [24],28.2 MFI
same,fluorescence intensity,[8]; [25],27.5 MFI
same,fluorescence intensity,[8]; [26],28 MFI
same,fluorescence intensity,[8]; [27],30 MFI
same,fluorescence intensity,[8]; [28],34 MFI
same,fluorescence intensity,[8]; [29],46.8 MFI
same,fluorescence intensity,[9]; [22],21.5 MFI
same,fluorescence intensity,[9]; [23],25 MFI
same,fluorescence intensity,[9]; [24],20.5 MFI
same,fluorescence intensity,[9]; [25],22 MFI
same,fluorescence intensity,[9]; [26],23.8 MFI
same,fluorescence intensity,[9]; [27],24.5 MFI
same,fluorescence intensity,[9]; [28],27 MFI
same,fluorescence intensity,[9]; [29],34.5 MFI
same,fluorescence intensity,[10]; [22],24.5 MFI
same,fluorescence intensity,[10]; [23],21.5 MFI
same,fluorescence intensity,[10]; [24],21.5 MFI
same,fluorescence intensity,[10]; [25],20 MFI
same,fluorescence intensity,[10]; [26],22 MFI
same,fluorescence intensity,[10]; [27],22 MFI
same,fluorescence intensity,[10]; [28],27 MFI
same,fluorescence intensity,[10]; [29],80.5 MFI
same,fluorescence intensity,[11]; [22],21 MFI
same,fluorescence intensity,[11]; [23],22.2 MFI
same,fluorescence intensity,[11]; [24],23.5 MFI
same,fluorescence intensity,[11]; [25],22 MFI
same,fluorescence intensity,[11]; [26],22 MFI
same,fluorescence intensity,[11]; [27],22 MFI
same,fluorescence intensity,[11]; [28],25.8 MFI
same,fluorescence intensity,[11]; [29],47.5 MFI
same,fluorescence intensity,[12]; [22],14.5 MFI
same,fluorescence intensity,[12]; [23],13.5 MFI
same,fluorescence intensity,[12]; [24],12.5 MFI
same,fluorescence intensity,[12]; [25],13.8 MFI
same,fluorescence intensity,[12]; [26],12.8 MFI
same,fluorescence intensity,[12]; [27],12.8 MFI
same,fluorescence intensity,[12]; [28],14.2 MFI
same,fluorescence intensity,[12]; [29],21.5 MFI
same,fluorescence intensity,[13]; [22],16.5 MFI
same,fluorescence intensity,[13]; [23],16 MFI
same,fluorescence intensity,[13]; [24],14.5 MFI
same,fluorescence intensity,[13]; [25],13.5 MFI
same,fluorescence intensity,[13]; [26],14.2 MFI
same,fluorescence intensity,[13]; [27],13.8 MFI
same,fluorescence intensity,[13]; [28],18.8 MFI
same,fluorescence intensity,[13]; [29],30 MFI
same,fluorescence intensity,[14]; [22],15.5 MFI
same,fluorescence intensity,[14]; [23],15.5 MFI
same,fluorescence intensity,[14]; [24],15 MFI
same,fluorescence intensity,[14]; [25],14.8 MFI
same,fluorescence intensity,[14]; [26],14.5 MFI
same,fluorescence intensity,[14]; [27],14 MFI
same,fluorescence intensity,[14]; [28],18.5 MFI
same,fluorescence intensity,[14]; [29],27.5 MFI
same,fluorescence intensity,[15]; [22],18.5 MFI
same,fluorescence intensity,[15]; [23],18 MFI
same,fluorescence intensity,[15]; [24],18 MFI
same,fluorescence intensity,[15]; [25],18.8 MFI
same,fluorescence intensity,[15]; [26],18 MFI
same,fluorescence intensity,[15]; [27],19 MFI
same,fluorescence intensity,[15]; [28],21 MFI
same,fluorescence intensity,[15]; [29],36.5 MFI
same,fluorescence intensity,[16]; [22],17.5 MFI
same,fluorescence intensity,[16]; [23],19 MFI
same,fluorescence intensity,[16]; [24],19 MFI
same,fluorescence intensity,[16]; [25],17.8 MFI
same,fluorescence intensity,[16]; [26],18.5 MFI
same,fluorescence intensity,[16]; [27],18.5 MFI
same,fluorescence intensity,[16]; [28],18.8 MFI
same,fluorescence intensity,[16]; [29],27.5 MFI
same,fluorescence intensity,[17]; [22],13.8 MFI
same,fluorescence intensity,[17]; [23],14 MFI
same,fluorescence intensity,[17]; [24],14 MFI
same,fluorescence intensity,[17]; [25],14.8 MFI
same,fluorescence intensity,[17]; [26],15 MFI
same,fluorescence intensity,[17]; [27],15 MFI
same,fluorescence intensity,[17]; [28],22 MFI
same,fluorescence intensity,[17]; [29],68 MFI
same,fluorescence intensity,[18]; [22],11 MFI
same,fluorescence intensity,[18]; [23],12.5 MFI
same,fluorescence intensity,[18]; [24],12.5 MFI
same,fluorescence intensity,[18]; [25],12.5 MFI
same,fluorescence intensity,[18]; [26],12.2 MFI
same,fluorescence intensity,[18]; [27],12 MFI
same,fluorescence intensity,[18]; [28],14 MFI
same,fluorescence intensity,[18]; [29],15.5 MFI
same,fluorescence intensity,[19]; [22],17 MFI
same,fluorescence intensity,[19]; [23],17 MFI
same,fluorescence intensity,[19]; [24],16.5 MFI
same,fluorescence intensity,[19]; [25],17.5 MFI
same,fluorescence intensity,[19]; [26],18.5 MFI
same,fluorescence intensity,[19]; [27],19 MFI
B2,fluorescence intensity,[20]; [28],66 MFI
same,fluorescence intensity,[20]; [29],229 MFI
same,fluorescence intensity,[21]; [22],14.5 MFI
same,fluorescence intensity,[21]; [23],13.5 MFI
same,fluorescence intensity,[21]; [24],14.8 MFI
same,fluorescence intensity,[21]; [25],15 MFI
same,fluorescence intensity,[21]; [26],16 MFI
same,fluorescence intensity,[21]; [27],20 MFI
same,fluorescence intensity,[21]; [28],27.5 MFI
same,fluorescence intensity,[21]; [29],38 MFI
